According to publication PMC10805670:
The exact form of at least one protein or probe is not confirmed. At least one result comes from cells or an extract, where the contact may be indirect.

Amino acid sequences for entries named in this document (tags omitted). A change or cut given only in a name is not applied to a line headed by its entry.
UniProt Q60843: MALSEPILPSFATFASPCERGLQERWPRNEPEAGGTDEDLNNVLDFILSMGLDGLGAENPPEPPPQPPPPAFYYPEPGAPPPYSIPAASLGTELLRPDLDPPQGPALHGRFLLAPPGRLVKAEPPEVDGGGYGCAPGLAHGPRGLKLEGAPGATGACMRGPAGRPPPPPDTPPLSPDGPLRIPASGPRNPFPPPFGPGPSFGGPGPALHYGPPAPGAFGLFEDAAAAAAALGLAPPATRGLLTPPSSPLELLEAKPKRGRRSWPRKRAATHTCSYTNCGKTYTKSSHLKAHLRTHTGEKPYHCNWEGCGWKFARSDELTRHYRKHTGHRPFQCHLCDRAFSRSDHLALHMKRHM

Biological target: KLF2 (UniProt Q60843)
Test: EMSA
Conditions: 10 mM Tris, 50 mM KCl, 1 mM DTT, 10 mM ZnCl2, pH and binding temperature not stated, antibody preincubation 4 C 30 min

Row | Sequence | binding result (two shifted bands, protein in an …) | binding result (one shifted band, protein in an extract)
1 | GAGGGGAAAGGTAGGAGTTGGAGGGGAAAGGTAGGAGTTG (double strand) [SCAP probe 20*2] | binds | –
2 | GGCGGAGCGGGAGGGGAAAGGTAGGAGTTGAGAGGTGAAG (double strand) [SCAP probe 40*1] | – | binds
